Among the data in article PMC8152094 are binding values, retold here.

No constants are given. Whether binding was seen depends on the method and setting. In cells and extracts the contact can be indirect. Binding can be weak; no strength is given. Where a sequence is shown, tags or fusion partners need not be part of it.

The assay has as its target MBP-CesL (enteropathogenic Escherichia coli (EPEC) E2348/69). The assay is described as follows: pull-down; MBP-CesL from a cleared lysate bound to amylose resin and washed; cleared E. coli lysate with the prey loaded on the column; washes with 50 mM Tris-HCl pH 7.4, 500 mM NaCl; eluted with 20 mM maltose; SDS-PAGE and immunoblot; only the target purified. (In general: In western blotting, separated proteins are transferred to a membrane and probed.)

B1: His-EscUC (domain or fragment, UniProt Q9AJ26 215-345)
chain: MSKDEVKREAKDTDGNPEIKGERRRLHSEIQSGSLANNIKKSTVIVKNPTHIAICLYYKLGETPLPLVIETGKDAKALQIIKLAELYDIPVIEDIPLARSLYKNIHKGQYITEDFFEPVAQLIRIAIDLDY
For B1, the binding entry is given as “binds”.
